These are yes or no findings as the source states them, for the method shown. In cells and extracts the contact can be indirect. These calls come from enrichment with a bait or labelling near it, and not all partners need be listed.
B1: Dusp18 (endogenous, mouse) (enzyme, UniProt Q8VE01 1-188)
chain: MTSPWSAFPVQIPQPSIRGLSQITKSLFISNGVAANNKLLLSSNQITTVINVSVEVANTFYEDIQYVQVPVVDAPVARLSNFFDSVADRIHSVEMQKGRTLLHCAAGVSRSAALCLAYLMKYHAMSLVDAHTWTKSCRPIIRPNSGFWEQLIHYELQLFGKNTMQMMDSPMGRIPDIYEKETRLMIPL

Chains of the proteins cited; added tags and fusions are not shown.
UniProt Q91V45: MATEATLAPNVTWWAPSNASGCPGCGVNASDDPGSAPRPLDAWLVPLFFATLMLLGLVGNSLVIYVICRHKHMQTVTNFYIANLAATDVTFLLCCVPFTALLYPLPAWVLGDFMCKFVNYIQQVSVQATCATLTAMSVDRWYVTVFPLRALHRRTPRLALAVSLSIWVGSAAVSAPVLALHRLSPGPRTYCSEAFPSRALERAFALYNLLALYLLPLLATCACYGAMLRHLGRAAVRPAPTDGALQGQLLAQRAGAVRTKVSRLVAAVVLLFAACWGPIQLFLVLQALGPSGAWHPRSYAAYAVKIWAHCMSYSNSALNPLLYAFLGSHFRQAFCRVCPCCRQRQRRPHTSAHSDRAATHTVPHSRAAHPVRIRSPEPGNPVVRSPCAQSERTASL
UniProt P62137: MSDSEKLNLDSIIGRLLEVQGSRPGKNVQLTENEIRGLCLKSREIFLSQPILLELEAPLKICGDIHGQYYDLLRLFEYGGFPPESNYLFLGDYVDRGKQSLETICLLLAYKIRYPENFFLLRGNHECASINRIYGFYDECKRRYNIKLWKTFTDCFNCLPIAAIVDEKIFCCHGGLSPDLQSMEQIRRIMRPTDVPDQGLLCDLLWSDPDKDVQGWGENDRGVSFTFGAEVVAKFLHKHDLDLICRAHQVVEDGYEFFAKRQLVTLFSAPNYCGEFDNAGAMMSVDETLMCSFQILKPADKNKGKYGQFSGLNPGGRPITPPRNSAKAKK
UniProt P29351: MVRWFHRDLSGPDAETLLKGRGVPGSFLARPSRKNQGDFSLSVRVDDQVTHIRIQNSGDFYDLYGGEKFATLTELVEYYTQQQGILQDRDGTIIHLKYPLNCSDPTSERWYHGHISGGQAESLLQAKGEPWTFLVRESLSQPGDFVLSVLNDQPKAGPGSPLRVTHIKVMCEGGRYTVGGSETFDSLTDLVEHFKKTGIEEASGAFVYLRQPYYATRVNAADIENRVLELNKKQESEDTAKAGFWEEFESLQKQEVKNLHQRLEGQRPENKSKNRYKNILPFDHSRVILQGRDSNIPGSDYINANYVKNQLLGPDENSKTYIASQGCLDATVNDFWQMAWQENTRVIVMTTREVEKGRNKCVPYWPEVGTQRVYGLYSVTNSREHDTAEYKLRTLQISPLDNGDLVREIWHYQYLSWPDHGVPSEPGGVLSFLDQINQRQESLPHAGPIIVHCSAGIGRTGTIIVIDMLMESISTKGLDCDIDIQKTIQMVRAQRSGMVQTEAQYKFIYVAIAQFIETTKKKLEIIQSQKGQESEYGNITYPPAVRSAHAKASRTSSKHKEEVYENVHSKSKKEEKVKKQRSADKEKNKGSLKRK

Target: Gpr54 (endogenous, mouse) (mouse (endogenous in RAW264.7)) (UniProt Q91V45)
Experiment: affinity purification with mass spectrometry; anti-Gpr54 IP from RAW264.7 whole-cell lysates with or without Kp-10 for 20 min, on-bead digestion, Q-Exactive, label-free quantification

Molecule	binding
PPP1CA (endogenous, mouse) (from UniProt P62137 1-330) (enzyme)	binds
PTPN6 (endogenous, mouse) (from UniProt P29351 1-595) (enzyme)	binds
B1	binds

Reference: PMC10861593, “Kisspeptin-10 binding to Gpr54 in osteoclasts prevents bone loss by activating Dusp18-mediated dephosphorylation of Src” (Nature Communications, 2024)
